The record followed here is PMC8514785.

Amino acid sequences for entries named in this document (tags omitted). A change or cut given only in a name is not applied to a line headed by its entry.
UniProt P55852: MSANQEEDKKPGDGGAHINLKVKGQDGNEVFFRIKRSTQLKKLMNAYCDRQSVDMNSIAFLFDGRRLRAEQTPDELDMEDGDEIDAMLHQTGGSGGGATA
UniProt Q9FLP5: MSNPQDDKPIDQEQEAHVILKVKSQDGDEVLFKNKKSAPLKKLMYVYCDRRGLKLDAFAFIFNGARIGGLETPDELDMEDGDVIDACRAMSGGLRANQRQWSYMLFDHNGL
UniProt P05804: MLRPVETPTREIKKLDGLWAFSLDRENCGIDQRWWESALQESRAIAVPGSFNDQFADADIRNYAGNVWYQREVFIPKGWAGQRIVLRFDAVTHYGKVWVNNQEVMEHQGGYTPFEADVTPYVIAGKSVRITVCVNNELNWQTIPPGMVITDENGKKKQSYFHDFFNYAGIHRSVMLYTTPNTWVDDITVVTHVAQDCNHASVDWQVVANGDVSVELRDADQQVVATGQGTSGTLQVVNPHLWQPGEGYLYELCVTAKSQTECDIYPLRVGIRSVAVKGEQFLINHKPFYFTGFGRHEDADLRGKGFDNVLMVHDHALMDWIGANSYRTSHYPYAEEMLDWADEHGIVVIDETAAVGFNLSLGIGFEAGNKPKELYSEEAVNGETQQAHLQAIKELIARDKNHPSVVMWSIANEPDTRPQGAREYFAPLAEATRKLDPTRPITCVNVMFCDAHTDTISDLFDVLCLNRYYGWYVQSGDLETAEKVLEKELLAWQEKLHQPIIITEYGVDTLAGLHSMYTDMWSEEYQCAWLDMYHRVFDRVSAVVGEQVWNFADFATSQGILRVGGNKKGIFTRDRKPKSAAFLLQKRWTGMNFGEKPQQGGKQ

No constants are given. Whether binding was seen depends on the method and setting. Binding seen in cells or lysates may run through a third protein. For part of these data: A result given as binding can be weak or reduced; the word gives no strength. For part of these data: Where a sequence is shown, tags or fusion partners need not be part of it.

The target of one experiment is T1, nVenus-SRFR1 (SUPPRESSOR OF rps4-RLD1) (Arabidopsis thaliana) (UniProt F4JS25).
T1 sequence: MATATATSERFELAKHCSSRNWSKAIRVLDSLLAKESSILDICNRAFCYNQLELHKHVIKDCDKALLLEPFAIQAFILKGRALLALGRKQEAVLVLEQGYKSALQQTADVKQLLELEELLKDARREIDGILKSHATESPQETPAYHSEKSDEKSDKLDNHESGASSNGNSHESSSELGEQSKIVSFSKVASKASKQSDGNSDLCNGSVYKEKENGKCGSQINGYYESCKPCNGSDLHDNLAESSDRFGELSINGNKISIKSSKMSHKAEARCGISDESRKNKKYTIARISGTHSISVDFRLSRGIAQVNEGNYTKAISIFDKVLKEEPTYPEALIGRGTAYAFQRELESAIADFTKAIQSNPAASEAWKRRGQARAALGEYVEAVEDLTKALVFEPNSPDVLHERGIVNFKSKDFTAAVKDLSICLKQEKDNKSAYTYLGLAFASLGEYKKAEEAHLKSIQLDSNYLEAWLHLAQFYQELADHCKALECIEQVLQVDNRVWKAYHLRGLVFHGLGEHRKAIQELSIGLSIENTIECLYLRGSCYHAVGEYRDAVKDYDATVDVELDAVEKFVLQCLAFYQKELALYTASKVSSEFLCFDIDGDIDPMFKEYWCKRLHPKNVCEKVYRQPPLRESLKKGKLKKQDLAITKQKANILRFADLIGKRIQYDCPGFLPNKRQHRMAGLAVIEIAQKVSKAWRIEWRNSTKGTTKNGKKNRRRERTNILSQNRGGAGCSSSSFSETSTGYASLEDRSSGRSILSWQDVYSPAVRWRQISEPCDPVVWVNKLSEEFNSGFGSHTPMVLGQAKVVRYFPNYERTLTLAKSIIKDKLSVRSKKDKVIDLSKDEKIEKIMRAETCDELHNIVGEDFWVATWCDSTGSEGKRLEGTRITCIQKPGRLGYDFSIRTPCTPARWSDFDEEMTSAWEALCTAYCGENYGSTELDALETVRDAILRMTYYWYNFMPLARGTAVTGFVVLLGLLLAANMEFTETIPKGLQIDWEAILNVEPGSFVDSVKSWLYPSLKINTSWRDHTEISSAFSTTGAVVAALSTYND
The experiment can be described thus: split reporter; BiFC in N. benthamiana leaves; Agrobacterium strains with the BiFC vectors mixed at equal density and infiltrated; imaged 48 hpi by confocal microscopy (YFP reconstitution).
Take “cCFP-SUMO1 AA (SUMOylation-deficient form) (from UniProt P55852)”: the binding entry is reported as “no binding”.

“cCFP-SUMO1 GG (SUMOylation-competent form) (from UniProt P55852)”: the binding result was “binds”.

Take “cCFP-SUMO3 AA (SUMOylation-deficient form) (from UniProt Q9FLP5)”: the binding result is “binds”.

Turning to “cCFP-SUMO3 GG (SUMOylation-competent form) (from UniProt Q9FLP5)”, the binding entry is given as “binds”.

The target of the next experiment is beta-glucuronidase (GUS) BiFC fusion used as negative control against the SUMOs (UniProt P05804). The experiment is described as above.
In the case of “cCFP-SUMO1 AA (SUMOylation-deficient form) (from UniProt P55852)”, the binding entry is on record as “no binding”.

For “cCFP-SUMO1 GG (SUMOylation-competent form) (from UniProt P55852)”, the binding entry is reported as “no binding”.

Consider “cCFP-SUMO3 AA (SUMOylation-deficient form) (from UniProt Q9FLP5)”, for which the binding result is reported as “no binding”.

In the case of “cCFP-SUMO3 GG (SUMOylation-competent form) (from UniProt Q9FLP5)”, the binding result was “no binding”.

The target in the next experiment is T2, EDS1 (ENHANCED DISEASE SUSCEPTIBILITY 1) BiFC fusion (Arabidopsis thaliana) (UniProt Q9XF23).
T2 sequence: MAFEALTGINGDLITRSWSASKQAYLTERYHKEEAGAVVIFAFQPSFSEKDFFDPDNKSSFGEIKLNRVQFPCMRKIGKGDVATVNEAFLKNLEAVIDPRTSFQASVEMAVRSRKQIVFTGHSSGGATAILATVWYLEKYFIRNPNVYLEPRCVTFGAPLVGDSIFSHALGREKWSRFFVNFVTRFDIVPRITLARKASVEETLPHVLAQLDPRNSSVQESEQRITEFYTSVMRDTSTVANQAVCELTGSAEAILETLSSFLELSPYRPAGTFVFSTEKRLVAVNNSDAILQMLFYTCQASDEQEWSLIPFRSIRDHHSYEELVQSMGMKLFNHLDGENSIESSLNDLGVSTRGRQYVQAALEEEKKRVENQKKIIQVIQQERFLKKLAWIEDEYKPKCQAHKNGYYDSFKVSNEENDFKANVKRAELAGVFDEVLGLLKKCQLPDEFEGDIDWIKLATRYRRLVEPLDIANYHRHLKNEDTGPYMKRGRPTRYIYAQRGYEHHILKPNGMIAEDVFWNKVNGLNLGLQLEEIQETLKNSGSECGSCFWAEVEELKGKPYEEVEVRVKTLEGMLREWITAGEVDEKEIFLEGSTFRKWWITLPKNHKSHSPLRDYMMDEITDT
The description is as above.
With “cCFP-SUMO1 AA (SUMOylation-deficient form) (from UniProt P55852)”, the binding result is “no binding”.

With “cCFP-SUMO1 GG (SUMOylation-competent form) (from UniProt P55852)”, the binding result is “binds”.

With “cCFP-SUMO3 AA (SUMOylation-deficient form) (from UniProt Q9FLP5)”, the binding result is “no binding”.

On to “cCFP-SUMO3 GG (SUMOylation-competent form) (from UniProt Q9FLP5)”, for which the binding result is “no binding”.
